Results reported in the supplement of paper PMC10849652.
The other results are listed elsewhere or left out. Residues, ends and D or L forms follow the SMILES beside them. *: point of attachment. Cbz = O=C(OCc1ccccc1)*

Amino acid sequences for entries named in this document (tags omitted). A change or cut given only in a name is not applied to a line headed by its entry.
UniProt Q9BRA0: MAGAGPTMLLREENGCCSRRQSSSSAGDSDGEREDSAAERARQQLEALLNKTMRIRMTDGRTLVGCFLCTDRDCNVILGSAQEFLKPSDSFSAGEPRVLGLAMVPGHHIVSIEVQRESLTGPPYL
UniProt A2RRP1: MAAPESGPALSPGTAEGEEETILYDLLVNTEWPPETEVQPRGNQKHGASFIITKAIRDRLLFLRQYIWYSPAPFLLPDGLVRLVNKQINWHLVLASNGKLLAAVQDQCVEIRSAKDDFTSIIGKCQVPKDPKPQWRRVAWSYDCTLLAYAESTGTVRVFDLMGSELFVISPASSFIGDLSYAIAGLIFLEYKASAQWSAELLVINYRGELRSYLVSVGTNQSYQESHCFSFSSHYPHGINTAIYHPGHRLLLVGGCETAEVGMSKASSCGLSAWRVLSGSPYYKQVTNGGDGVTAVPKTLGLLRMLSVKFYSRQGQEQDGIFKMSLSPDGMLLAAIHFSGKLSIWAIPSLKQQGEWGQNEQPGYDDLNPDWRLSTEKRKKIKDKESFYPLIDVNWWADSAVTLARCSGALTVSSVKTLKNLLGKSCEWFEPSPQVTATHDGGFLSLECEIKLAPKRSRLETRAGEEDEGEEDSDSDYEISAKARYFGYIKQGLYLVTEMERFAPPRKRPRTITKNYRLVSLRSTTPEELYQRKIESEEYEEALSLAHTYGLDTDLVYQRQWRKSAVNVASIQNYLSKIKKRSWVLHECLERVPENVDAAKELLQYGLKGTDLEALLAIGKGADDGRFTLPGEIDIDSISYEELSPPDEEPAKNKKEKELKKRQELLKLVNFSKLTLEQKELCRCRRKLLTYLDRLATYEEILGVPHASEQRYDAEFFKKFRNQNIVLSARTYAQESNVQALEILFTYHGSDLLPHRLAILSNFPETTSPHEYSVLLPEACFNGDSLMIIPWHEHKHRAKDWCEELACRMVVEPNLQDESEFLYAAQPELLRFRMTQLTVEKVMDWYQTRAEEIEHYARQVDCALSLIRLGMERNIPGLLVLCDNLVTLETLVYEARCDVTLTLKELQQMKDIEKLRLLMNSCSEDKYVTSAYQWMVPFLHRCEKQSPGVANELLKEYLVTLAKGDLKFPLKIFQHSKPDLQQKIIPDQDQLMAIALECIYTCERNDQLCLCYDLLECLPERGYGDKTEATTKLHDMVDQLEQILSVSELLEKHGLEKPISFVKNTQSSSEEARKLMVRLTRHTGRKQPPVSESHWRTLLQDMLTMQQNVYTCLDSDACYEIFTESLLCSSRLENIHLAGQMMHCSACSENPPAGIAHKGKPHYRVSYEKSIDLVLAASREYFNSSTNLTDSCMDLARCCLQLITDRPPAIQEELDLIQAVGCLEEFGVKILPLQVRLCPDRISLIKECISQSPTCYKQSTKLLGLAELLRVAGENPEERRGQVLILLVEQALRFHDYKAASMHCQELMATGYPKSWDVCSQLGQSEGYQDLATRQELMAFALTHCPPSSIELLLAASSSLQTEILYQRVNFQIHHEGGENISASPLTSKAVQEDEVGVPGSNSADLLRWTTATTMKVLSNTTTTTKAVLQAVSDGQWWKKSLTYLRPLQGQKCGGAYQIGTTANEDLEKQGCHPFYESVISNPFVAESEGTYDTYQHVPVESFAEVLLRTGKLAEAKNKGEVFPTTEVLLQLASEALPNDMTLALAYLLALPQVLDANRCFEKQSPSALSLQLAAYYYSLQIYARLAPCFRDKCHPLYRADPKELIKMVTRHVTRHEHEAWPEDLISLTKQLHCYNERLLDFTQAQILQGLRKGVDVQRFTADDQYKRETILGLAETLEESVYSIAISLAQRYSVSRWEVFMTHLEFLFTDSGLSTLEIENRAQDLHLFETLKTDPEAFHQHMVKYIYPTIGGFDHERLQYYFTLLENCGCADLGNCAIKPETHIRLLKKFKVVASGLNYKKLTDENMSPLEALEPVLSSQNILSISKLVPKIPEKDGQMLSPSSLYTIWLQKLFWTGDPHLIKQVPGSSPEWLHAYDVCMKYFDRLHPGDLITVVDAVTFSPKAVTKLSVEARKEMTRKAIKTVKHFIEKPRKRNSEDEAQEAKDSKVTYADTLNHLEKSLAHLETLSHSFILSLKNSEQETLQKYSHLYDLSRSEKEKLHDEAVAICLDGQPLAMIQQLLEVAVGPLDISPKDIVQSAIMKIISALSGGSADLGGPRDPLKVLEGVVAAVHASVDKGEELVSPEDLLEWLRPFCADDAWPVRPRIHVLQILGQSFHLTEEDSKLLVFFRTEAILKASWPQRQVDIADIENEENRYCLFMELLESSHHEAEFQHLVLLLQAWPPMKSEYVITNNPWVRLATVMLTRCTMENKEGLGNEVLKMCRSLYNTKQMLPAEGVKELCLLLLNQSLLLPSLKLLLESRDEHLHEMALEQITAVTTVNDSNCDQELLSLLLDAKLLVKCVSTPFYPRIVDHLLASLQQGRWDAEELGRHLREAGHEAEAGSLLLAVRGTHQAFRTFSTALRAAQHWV
UniProt O75489, whole entry, looked up: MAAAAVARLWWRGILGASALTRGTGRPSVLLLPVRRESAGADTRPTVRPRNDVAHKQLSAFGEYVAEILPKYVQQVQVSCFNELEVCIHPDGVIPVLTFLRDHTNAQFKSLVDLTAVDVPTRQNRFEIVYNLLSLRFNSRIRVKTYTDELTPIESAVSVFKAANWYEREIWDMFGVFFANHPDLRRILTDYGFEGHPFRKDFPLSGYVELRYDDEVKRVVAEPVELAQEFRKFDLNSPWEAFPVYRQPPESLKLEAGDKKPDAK
UniProt Q92692, whole entry, looked up: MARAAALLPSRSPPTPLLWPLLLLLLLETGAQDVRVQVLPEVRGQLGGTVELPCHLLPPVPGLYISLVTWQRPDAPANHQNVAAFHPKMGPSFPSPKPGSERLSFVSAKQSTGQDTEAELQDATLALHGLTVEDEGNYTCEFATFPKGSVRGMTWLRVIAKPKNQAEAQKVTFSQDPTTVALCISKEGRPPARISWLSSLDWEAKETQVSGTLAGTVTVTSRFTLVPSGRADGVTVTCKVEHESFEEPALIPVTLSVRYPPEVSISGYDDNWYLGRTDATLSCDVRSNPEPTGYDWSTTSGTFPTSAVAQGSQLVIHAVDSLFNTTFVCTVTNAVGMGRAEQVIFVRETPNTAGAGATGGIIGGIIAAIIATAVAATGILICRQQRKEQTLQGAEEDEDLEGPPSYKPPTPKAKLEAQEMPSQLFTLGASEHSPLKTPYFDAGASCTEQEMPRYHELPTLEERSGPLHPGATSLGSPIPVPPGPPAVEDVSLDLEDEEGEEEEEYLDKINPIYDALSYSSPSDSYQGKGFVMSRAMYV
UniProt Q5TEU4: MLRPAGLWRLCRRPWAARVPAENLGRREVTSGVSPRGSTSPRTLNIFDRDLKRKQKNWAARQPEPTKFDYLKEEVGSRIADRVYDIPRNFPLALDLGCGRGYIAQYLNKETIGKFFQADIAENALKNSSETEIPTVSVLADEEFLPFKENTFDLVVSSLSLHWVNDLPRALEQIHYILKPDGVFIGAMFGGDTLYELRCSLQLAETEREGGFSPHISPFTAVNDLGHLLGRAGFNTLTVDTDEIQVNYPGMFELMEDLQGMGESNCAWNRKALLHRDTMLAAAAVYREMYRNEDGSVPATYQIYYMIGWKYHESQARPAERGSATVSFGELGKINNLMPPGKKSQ
UniProt Q6PIU2: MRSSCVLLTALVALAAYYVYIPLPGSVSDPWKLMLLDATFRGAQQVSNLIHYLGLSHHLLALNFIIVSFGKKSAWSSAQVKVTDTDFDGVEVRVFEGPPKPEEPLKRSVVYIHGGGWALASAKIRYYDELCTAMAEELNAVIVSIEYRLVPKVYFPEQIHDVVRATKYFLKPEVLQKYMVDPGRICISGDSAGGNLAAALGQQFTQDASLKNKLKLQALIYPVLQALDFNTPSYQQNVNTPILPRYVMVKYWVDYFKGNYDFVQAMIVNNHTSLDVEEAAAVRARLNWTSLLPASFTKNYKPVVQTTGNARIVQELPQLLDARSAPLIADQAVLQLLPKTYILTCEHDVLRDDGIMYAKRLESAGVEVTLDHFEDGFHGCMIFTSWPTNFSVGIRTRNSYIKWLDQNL
UniProt P28331, whole entry, looked up: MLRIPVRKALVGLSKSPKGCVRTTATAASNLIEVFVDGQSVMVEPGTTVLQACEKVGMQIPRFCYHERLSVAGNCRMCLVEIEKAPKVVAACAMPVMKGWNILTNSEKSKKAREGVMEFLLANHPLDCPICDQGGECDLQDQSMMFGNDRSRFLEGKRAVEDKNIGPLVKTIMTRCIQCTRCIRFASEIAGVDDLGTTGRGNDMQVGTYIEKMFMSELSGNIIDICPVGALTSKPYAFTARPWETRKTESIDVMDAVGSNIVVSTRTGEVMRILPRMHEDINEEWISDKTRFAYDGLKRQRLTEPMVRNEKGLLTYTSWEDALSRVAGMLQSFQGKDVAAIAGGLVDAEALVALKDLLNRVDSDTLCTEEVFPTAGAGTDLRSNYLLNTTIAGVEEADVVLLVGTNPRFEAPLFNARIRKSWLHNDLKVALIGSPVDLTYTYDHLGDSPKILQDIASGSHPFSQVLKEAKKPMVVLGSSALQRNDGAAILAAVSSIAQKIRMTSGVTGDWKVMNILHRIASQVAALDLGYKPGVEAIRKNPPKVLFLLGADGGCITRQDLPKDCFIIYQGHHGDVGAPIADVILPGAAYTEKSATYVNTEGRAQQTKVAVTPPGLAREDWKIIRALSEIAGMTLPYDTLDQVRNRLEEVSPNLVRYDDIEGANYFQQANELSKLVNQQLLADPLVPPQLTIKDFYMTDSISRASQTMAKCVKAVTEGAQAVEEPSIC
UniProt O95169, whole entry, looked up: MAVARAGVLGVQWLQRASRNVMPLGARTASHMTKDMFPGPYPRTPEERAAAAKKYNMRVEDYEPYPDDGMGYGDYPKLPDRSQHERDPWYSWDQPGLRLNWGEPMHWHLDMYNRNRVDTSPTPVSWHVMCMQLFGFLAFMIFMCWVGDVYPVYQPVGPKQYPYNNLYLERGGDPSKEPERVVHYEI
UniProt Q15021, whole entry, looked up: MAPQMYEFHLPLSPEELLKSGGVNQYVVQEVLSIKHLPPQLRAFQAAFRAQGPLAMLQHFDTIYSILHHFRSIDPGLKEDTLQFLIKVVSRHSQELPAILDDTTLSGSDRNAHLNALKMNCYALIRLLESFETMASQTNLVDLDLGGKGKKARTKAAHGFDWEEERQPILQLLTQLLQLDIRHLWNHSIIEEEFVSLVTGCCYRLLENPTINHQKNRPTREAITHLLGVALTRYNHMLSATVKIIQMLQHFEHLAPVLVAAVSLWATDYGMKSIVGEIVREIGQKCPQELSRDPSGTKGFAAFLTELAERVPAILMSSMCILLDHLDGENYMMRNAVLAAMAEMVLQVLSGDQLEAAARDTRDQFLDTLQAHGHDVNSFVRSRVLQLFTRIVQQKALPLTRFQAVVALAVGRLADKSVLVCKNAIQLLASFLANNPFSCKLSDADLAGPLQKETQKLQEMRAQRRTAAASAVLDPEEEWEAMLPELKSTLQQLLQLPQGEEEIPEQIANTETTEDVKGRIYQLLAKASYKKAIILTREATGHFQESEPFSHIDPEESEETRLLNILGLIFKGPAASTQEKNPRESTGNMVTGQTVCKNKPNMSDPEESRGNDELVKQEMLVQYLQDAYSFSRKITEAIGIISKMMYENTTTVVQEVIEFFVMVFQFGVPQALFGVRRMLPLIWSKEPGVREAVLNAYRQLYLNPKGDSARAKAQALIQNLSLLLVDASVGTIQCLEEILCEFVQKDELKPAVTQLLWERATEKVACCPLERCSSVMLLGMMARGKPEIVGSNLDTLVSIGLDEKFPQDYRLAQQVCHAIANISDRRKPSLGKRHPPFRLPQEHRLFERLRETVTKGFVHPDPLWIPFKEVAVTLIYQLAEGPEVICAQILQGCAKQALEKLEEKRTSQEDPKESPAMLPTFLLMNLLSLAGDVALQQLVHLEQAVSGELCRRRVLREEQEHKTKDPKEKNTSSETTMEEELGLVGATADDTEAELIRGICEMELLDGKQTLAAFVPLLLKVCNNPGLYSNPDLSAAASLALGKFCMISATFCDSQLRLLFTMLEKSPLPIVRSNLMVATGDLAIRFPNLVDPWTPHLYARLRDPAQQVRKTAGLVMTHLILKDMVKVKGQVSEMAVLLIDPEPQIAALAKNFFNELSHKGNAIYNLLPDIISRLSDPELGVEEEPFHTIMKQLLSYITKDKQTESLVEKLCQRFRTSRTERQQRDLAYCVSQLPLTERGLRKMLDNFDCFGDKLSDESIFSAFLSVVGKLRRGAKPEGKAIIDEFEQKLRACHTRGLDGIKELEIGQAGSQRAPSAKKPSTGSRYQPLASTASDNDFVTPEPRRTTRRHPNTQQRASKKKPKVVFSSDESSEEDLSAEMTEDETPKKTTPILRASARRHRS
UniProt O00217, whole entry, looked up: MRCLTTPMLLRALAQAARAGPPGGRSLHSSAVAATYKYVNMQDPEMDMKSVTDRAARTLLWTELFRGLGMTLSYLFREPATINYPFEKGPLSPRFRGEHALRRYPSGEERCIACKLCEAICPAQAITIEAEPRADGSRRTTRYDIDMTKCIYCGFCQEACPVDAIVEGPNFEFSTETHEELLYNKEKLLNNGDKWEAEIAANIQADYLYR

What was measured:
Assay in all cases: log2 fold change, soluble protein after heating vs DMSO (PISA); higher = thermal stabilisation; K562 cells, 10 uM, 30 min; active = over 0.2 and 3.5 SD of the protein, either way, in both replicates (recomputed)
erlotinib = compound: C#Cc1cccc(Nc2ncnc3cc(OCCOC)c(OCCOC)cc23)c1 [erlotinib]
In short: (§1)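 Values are thermal stability changes relative to control samples and are taken from duplicates. They are stated as log2 fold changes. Before quantification by TMTpro 16plex LC-MS/MS with equalised channel sums, K562 cells at 2×10^6 cells/mL were treated with 10 μM compound for 30 min, heated in aliquots for 3 min across 48°C-58°C, pooled, extracted in PBS with 0.5% NP-40 at 4°C, and centrifuged at 21,000xg for 90 min to give the soluble supernatant.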

[1] = compound: C/C(=N\NC(=O)C1=CC(=CC=C1)S(=O)(=O)N2CCOCC2)/C3=C(C=CC(=C3)Cl)O
In short: as §1

[2] = compound: C1=CC(=C(C=C1Cl)C2=NC3=NC=CN=C3C(=N2)NC4=CC=NC=C4)F
In short: as §1

[3] = compound: C1=CC(=CC=C1C2=NC3=C(N2)C=C(C=C3)C(=O)N)OC4=CC=C(C=C4)Cl
In short: as §1

[4] = compound: C1=CC2=C(C=CC(=C2)/C=C\3/C(=O)NC(=NCC4=CC=CS4)S3)N=C1
In short: as §1

[5] = compound: C1=CC2=NC=CN=C2C=C1/C=C/3\C(=O)NC(=O)S3
In short: as §1

[6] = compound: C1=CC=C(C=C1)C2=NC(=C(N2)C3=CC=NC=C3)C4=CC(=C(C=C4)Cl)O
In short: as §1

[7] = compound: C1=CC=C2C(=C1)C3=NNC4=CC=CC(=C43)C2=O
In short: as §1

[8] = compound: C1CCN(C1)C(=O)NC2=CC=CC(=C2)NC3=NC=C(C(=N3)NCCC4=CN=CN4)Br
In short: as §1

[9] = compound: C1CN(CCC1(CC2=CC=C(C=C2)Cl)N)C3=NC=NC4=C3C=CN4
In short: as §1

IRAK-1-4 Inhibitor I = compound: C1COCCN1CCN2C3=CC=CC=C3N=C2NC(=O)C4=CC(=CC=C4)[N+](=O)[O-] [IRAK-1-4 Inhibitor I]
In short: as §1

ibrutinib = compound: C=CC(=O)N1CCC[C@@H](n2nc(-c3ccc(Oc4ccccc4)cc3)c3c(N)ncnc32)C1 [ibrutinib]
In short: as §1

[10] = compound: CC(=O)c1cnc2ccc(-c3cc(Cl)c(O)c(Cl)c3)nc2c1N[C@H]1CC[C@H](CN(C)C)CC1
In short: as §1

ralimetinib = compound: CC(C)(C)Cn1c(N)nc2ccc(-c3[nH]c(C(C)(C)C)nc3-c3ccc(F)cc3)nc21 [ralimetinib]
In short: as §1

[11] = compound: CC(C)(O)CC(=O)NCCn1ccc2ncnc(Nc3ccc(Oc4cccc(C(F)(F)F)c4)c(Cl)c3)c21
In short: as §1

[12] = compound: CC(C)C1=C2N=C(C=C(N2N=C1)NCC3=CC=CC=C3)NCCCCCCN
In short: as §1

[13] = compound: CC(C)C[C@@H](C=O)NC(=O)[C@H](CC(C)C)NC(=O)[C@H](CC(C)C)NC(=O)OCc1ccccc1
In short: as §1

pinometostat = compound: CC(C)N(C[C@H]1O[C@@H](n2cnc3c(N)ncnc32)[C@H](O)[C@@H]1O)[C@H]1C[C@@H](CCc2nc3cc(C(C)(C)C)ccc3[nH]2)C1 [pinometostat]
In short: as §1

[14] = compound: CC1=C(C2=C(C=C1)C(=O)C3=CC=CC=C3N2CCCN)C
In short: as §1

[15] = compound: CC1=C(C(CC(=O)N1)C2=CC=C(C=C2)C(F)(F)F)C(=O)NC3=C(C=C4C(=C3)C=NN4)F
In short: as §1

Target	log2 fold change (erlotinib)	log2 fold change [1]	log2 fold change [2]	log2 fold change [3]	log2 fold change [4]	log2 fold change [5]	log2 fold change [6]	log2 fold change [7]	log2 fold change [8]	log2 fold change [9]	log2 fold change (IRAK-1-4 Inhibitor I)	log2 fold change (ibrutinib)	log2 fold change [10]	log2 fold change (ralimetinib)	log2 fold change [11]	log2 fold change [12]	log2 fold change [13]	log2 fold change (pinometostat)	log2 fold change [14]	log2 fold change [15]
NAA38 isoform 2 (UniProt Q9BRA0)	inactive: 0.139	inactive: 0.083	inactive: 0.092	inactive: -0.003	inactive: 0.034	inactive: 0.015	inactive: 0.044	inactive: -0.016	inactive: -0.009	inactive: 0.082	inactive: 0.047	inactive: -0.021	inactive: -0.034	inactive: 0.02	inactive: -0.095	active: -0.397	inactive: -0.001	inactive: 0.035	inactive: -0.01	
NBAS (UniProt A2RRP1)	inactive: 0.049	inactive: 0.003	inactive: -0.249	inactive: -0.012	inactive: 0.066	inactive: -0.021	inactive: 0.023	inactive: 0.023	inactive: -0.031	inactive: -0.192	inactive: -0.387	inactive: 0.033	inactive: 0.044	inactive: 0.198	inactive: -0.001	inactive: -0.33	inactive: 0.123	inactive: 0.423	inactive: -0.055	inactive: -0.085
NDUFAF3 (UniProt Q9BU61)	inactive: 0.01	inactive: 0.069	inactive: 0.071	inactive: -0.034	inactive: 0.03	inactive: -0.011	inactive: 0.093	inactive: 0.011	inactive: -0.015	inactive: 0.02	inactive: 0.032	inactive: 0.002	inactive: 0.007	inactive: 0.011	inactive: -0.046	inactive: -0.09	inactive: 0.001	inactive: -0.059	inactive: 0.121	inactive: 0.003
NDUFS3 (UniProt O75489)	inactive: 0.017	inactive: 0.003	inactive: 0.031	inactive: 0.038	inactive: 0.016	inactive: 0.021	inactive: 0.08	inactive: 0.005	inactive: -0.057	inactive: 0.012	inactive: 0.141	inactive: -0.012	inactive: -0.035	inactive: 0.018	inactive: -0.053	inactive: -0.065	inactive: 0.023	inactive: 0.018	inactive: 0.011	inactive: 0.014
NECTIN2 (UniProt Q92692)	inactive: 0.002	inactive: 0.005	inactive: 0.064	inactive: -0.006	inactive: 0.002	inactive: 0.008	inactive: -0.04	inactive: -0.041	inactive: -0.045	inactive: 0.077	inactive: 0.025	inactive: 0.02	inactive: -0.023	inactive: -0.035	inactive: -0.03	inactive: 0.182	inactive: 0.024	inactive: 0.009	inactive: 0	
NDUFAF5 (UniProt Q5TEU4)	inactive: 0.007	inactive: -0.069	inactive: 0.024	inactive: 0.02	inactive: 0.013	inactive: 0.009	inactive: -0.118	inactive: -0.009	inactive: 0.022	inactive: 0.07	inactive: 0.007	inactive: 0.119	inactive: 0.009	inactive: -0.217	inactive: -0.044	inactive: 0.031	inactive: -0.026	inactive: 0.005	inactive: -0.04	inactive: 0.011
NCEH1 isoform 2 (UniProt Q6PIU2)	inactive: -0.032	inactive: -0.005	inactive: 0.036	inactive: 0.012	inactive: 0.025	inactive: 0.074	inactive: -0.014	inactive: 0	inactive: 0.033	inactive: 0.083	inactive: -0.011	inactive: 0.026	inactive: 0.003	inactive: -0.031	inactive: 0.001	inactive: 0.004	inactive: -0.027	inactive: -0.005	inactive: -0.003	inactive: 0.023
NDUFS1 isoform 2 (UniProt P28331)	inactive: 0.009	inactive: -0.019	inactive: 0.049	inactive: 0.012	inactive: 0.069	inactive: 0.036	inactive: 0.033	inactive: 0.062	inactive: 0.003	inactive: 0.04	inactive: 0.012	inactive: -0.022	inactive: -0.004	inactive: -0.011	inactive: -0.148	inactive: -0.041	inactive: 0.012	inactive: -0.008	inactive: 0.099	inactive: 0
NDUFAB1 (UniProt O14561)	inactive: -0.245	inactive: -0.13	inactive: 0.069	inactive: -0.005	inactive: -0.166	inactive: 0.063	inactive: 0.13	inactive: 0.132	inactive: -0.136	inactive: -0.223	inactive: 0.001	inactive: 0.031	inactive: 0.001	inactive: -0.149	inactive: -0.022	inactive: 0.059	inactive: -0.135	inactive: -0.057	inactive: 0.31	inactive: 0.012
NDUFB8 (UniProt O95169)	inactive: -0.026	inactive: -0.047	inactive: 0.129	inactive: 0.005	inactive: 0.033	inactive: 0.087	inactive: -0.026	inactive: 0.07	inactive: -0.008	inactive: 0.06	inactive: 0.001	inactive: -0.01	inactive: -0.004	inactive: -0.063	active: -0.36	inactive: -0.042	inactive: 0.059	inactive: 0.003	inactive: 0.103	
NCK1 (UniProt P16333)	inactive: 0.045	inactive: 0.206	inactive: -0.066	inactive: 0	inactive: 0.179	inactive: -0.019	inactive: -0.084	inactive: 0	inactive: -0.135	inactive: -0.081	inactive: -0.178	inactive: -0.154	inactive: -0.252	inactive: 0.044	inactive: -0.038	inactive: -0.283	inactive: 0.082	inactive: 0.076	inactive: 0.039	
NARS2 (UniProt Q96I59)	inactive: 0.037	inactive: 0.065	inactive: 0.07	inactive: 0.008	inactive: -0.018	inactive: -0.004	inactive: 0.053	inactive: 0.017	inactive: -0.002	inactive: -0.083	inactive: 0.044	inactive: 0.03	inactive: 0.034	inactive: -0.034	inactive: -0.121	active: -0.31	inactive: -0.019	inactive: -0.019	inactive: -0.006	
NADSYN1 (UniProt Q6IA69)	inactive: -0.028	inactive: 0.012	inactive: -0.011	inactive: 0.026	inactive: -0.018	inactive: -0.033	inactive: 0.097	inactive: -0.02	inactive: -0.029	inactive: 0.048	inactive: 0.062	inactive: 0.011	inactive: -0.013	inactive: -0.008	inactive: -0.023	inactive: 0.061	inactive: -0.007	inactive: -0.007	inactive: 0.018	inactive: 0.025
NASP (UniProt P49321)	inactive: -0.018	inactive: 0.048	inactive: 0.079	inactive: -0.018	inactive: -0.02	inactive: 0.059	inactive: -0.018	inactive: -0.004	inactive: 0.001	inactive: -0.022	inactive: 0.01	inactive: -0.044	inactive: 0.033	inactive: 0.019	inactive: -0.004	inactive: -0.05	inactive: -0.009	inactive: -0.048	inactive: -0.09	
NCAPD2 (UniProt Q15021)	inactive: 0.029	inactive: 0.107	inactive: 0.005	inactive: -0.05	inactive: 0.024	inactive: 0.04	inactive: 0.013	inactive: 0.022	inactive: -0.001	inactive: -0.103	inactive: -0.101	inactive: -0.067	inactive: 0.097	inactive: 0.048	inactive: -0.151	inactive: -0.208	inactive: 0.054	inactive: 0.039	inactive: -0.036	
NDUFS8 (UniProt O00217)	inactive: 0.015	inactive: 0.045	inactive: 0.023	inactive: 0.033	inactive: 0.039	inactive: 0.027	inactive: 0.029	inactive: 0.007	inactive: 0.014	inactive: 0.035	inactive: 0.087	inactive: 0.034	inactive: -0.02	inactive: -0.083	inactive: -0.099	inactive: -0.145	inactive: 0.017	inactive: 0.005	inactive: 0.075	

In another format: results already given
Target,log2 fold change (erlotinib),log2 fold change [1],log2 fold change [2],log2 fold change [3],log2 fold change [4],log2 fold change [5],log2 fold change [6],log2 fold change [7],log2 fold change [8],log2 fold change [9],log2 fold change (IRAK-1-4 Inhibitor I),log2 fold change (ibrutinib),log2 fold change [10],log2 fold change (ralimetinib),log2 fold change [11],log2 fold change [12],log2 fold change [13],log2 fold change (pinometostat),log2 fold change [14],log2 fold change [15]
NDUFB8 (UniProt O95169),inactive: -0.026,inactive: -0.047,inactive: 0.129,inactive: 0.005,inactive: 0.033,inactive: 0.087,inactive: -0.026,inactive: 0.07,inactive: -0.008,inactive: 0.06,inactive: 0.001,inactive: -0.01,inactive: -0.004,inactive: -0.063,active: -0.36,inactive: -0.042,inactive: 0.059,inactive: 0.003,inactive: 0.103,
NCK1 (UniProt P16333),inactive: 0.045,inactive: 0.206,inactive: -0.066,inactive: 0,inactive: 0.179,inactive: -0.019,inactive: -0.084,inactive: 0,inactive: -0.135,inactive: -0.081,inactive: -0.178,inactive: -0.154,inactive: -0.252,inactive: 0.044,inactive: -0.038,inactive: -0.283,inactive: 0.082,inactive: 0.076,inactive: 0.039,
